From PubChem BioAssay AID1347423 (Functional Genomics Laboratory (NCATS/FGL), 2020)
Out of some 52,000 sequences screened, about 210 (0.4%) were called active.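 Rule for the calls: active = gene whose silencing raises cell survival under the drug, median off-target-corrected z-score across its silencing RNAs 2 or more; inactive = the rest.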 The list shows a part of the results.

Assay: Resistance to Poly (ADP-Ribose) Polymerase inhibitor: Gene Identification via Genome-wide siRNA Screen
Settings: mouse BRCA2 R2336H ES cells, olaparib, CellTiter-Glo viability; stronger effect = higher value
Outline: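 Genome-wide siRNA screen (3 siRNAs/gene, 20 nM) in mouse ES cells carrying hypomorphic BRCA2 R2336H; olaparib 500 nM added 48 h post-transfection, CellTiter-Glo viability 72 h later. Normalized to plate-median negative control; MAD z-scores, gene median, seed-adjusted.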

Sequence	z-score
GGAACUUCAUUGAACUAUGTT against 4732479N06Rik	inactive: 1.11
GGUCGAUCACGUCAUCGAATT against Unc5a	inactive: 0.93
GCCUGAUCUCUUCCCAUCATT against Plunc	inactive: 0.158
GGACUUCUACAUUGAACUUTT against 2410080H04Rik	inactive: 0.582
GCACGGUGUGUACAACCCUTT against Mdh2	inactive: 0.236
GCUACCACAGGAUAUCCUUTT against Mcf2	inactive: 0.4
GGAAGCUACAGCAACAUAATT against Acvrinp1	inactive: -0.381
GGAGAAAGUCUCUCUUAGUTT against D11Ertd461e	inactive: -1.15
GGGAAGAAGUUUAAAAGAATT against Rdh11	inactive: -1.14
GACAGAAUGCCAUUUCCUATT against Olfr902	inactive: 0.82
GGCCAAUCCACGAAAGCAUTT against 6330569M22Rik	inactive: -0.85
GCCAGAUGGUAGGCGAUUATT against 5430432N15Rik	inactive: -0.571
GGAGCAGAAUCCUUAUCGATT against Trpv5	inactive: 0.231
GGUUGCAGAUUUCCGAAGATT against D5Ertd40e	inactive: -0.0765
GGGUACAGUCCGAUACAGUTT against AK129375	inactive: -1.89
GGAGAAAUCGAUUCCCAUUTT against Olfr1132	inactive: 1.03
GGUCAUUCCCAUUAAACAGTT against Noc4	inactive: 0.321
GCUUGUUGGUGGUCUCCUGTT against Ecg2	inactive: -2.2
GGUACACCACGAAUGCACUTT against Epha1	inactive: 0.207
GGCGCACACUUUCACCUAATT against 9030409E16Rik	inactive: -0.974
GGUUCUAGGCAGUUUGAUATT against Mesdc1	inactive: 0.0476
GGAAGUGGUGGACAAAGUGTT against S100b	inactive: -1.18
GGAUGUGACUAAAGUCAACTT against 1600029D21Rik	inactive: 2.32
GGAUGUGCGGAAGUUCAAATT against Centb5	inactive: 0.167
GGGUUUUUAAGUUCACUGATT against St7l	inactive: 0.0114
GGCAUGAUAACUUGAAAUGTT against Dnahc11	inactive: 0.513

Sequence	z-score
GCGAUUGUCAUUCUCUUUUTT against Jak3	inactive: 0.668
CCUUGUAAUGUGAUUCUGGTT against Ctsr	inactive: 0.991
CAUUGGUGACAAUAAGUAUTT against Ssx9	inactive: 0.26
GGACACCGGGAUGUGCAAATT against Pglyrp1	inactive: 1.22
GGUUCAAGUGCAUUGCUUCTT against Rab34	inactive: -0.413
GGUCUUCCUAAGAGAGACATT against Ostb	inactive: 2.94
GGACAUCUCUACAAAUUACTT against Tra1	inactive: 0.87
GGCCUAAGAAAACUCCAGCTT against Usmg5	inactive: -0.17
GCAGAACCGCAUCAUAUUCTT against Ucn	inactive: 0.73
GGUGGAUGAAACUCAGUUUTT against Aldh2	inactive: -0.493
GGGUAACAUGAAAGUGAUCTT against Mybbp1a	inactive: 1.67
GCCCAAGGAUGAACUGCAGTT against Olfr108	inactive: -1.41
GGAUGAGACCAUCUGCCAATT against Adra1a	inactive: 0.27
GGUGGUGCCAAGAUGUUGUTT against 1100001A21Rik	inactive: 0.607
GAGUCAUUACACCAGACAGTT against LOC433384	inactive: -1.82
GGUCUGUUAUGCAGAAUGCTT against 4922503N01Rik	inactive: 0.104
GUGUCCUGAACACAGCCACTT against Olfr638	inactive: 0.682
GGAAUUCCUCCUAUGUUCATT against E430034L04Rik	inactive: -0.0851
GGCUUUCCAGAAGACAGAATT against Cyp2s1	inactive: 0.449
GGAAAGGAUACUAUGAGGATT against 1700031F13Rik	inactive: 1.02
GGAAUUGAAGGGUACUUAATT against 4632417K18Rik	inactive: 0.699
GCUGAGAGACUUGUGAAAUTT against Np15	inactive: -0.619
GGAGUGACAGUUUUUAUUCTT against Hoxd10	inactive: 0.0365
GGAUUUUUACAGAGACAUGTT against Actr6	inactive: 0.674
CCGUGUGAUCAAUGUGAAUTT against Casq1	inactive: 0.876
GGAGAAAGCUUGUGUGGUGTT against 2810405K02Rik	inactive: 0.0334

Sequence	z-score
CCAAUAACUCGAAACUGGCTT against Cdc16	inactive: 0.178
GGAGUGUGUAAAGACAUAATT against Ear11	inactive: -0.851
GGAGAAAUUAGGAUUACCATT against Pcdhac2	inactive: -0.503
CCUGCUUACGUACAAGACCTT against Tekt1	inactive: 0.888
UCCUUGCUGUCCUAACCAUTT against Gpr119	inactive: -0.623
GGCAGAAAGUGAAGAGUUGTT against Kazald1	inactive: 0.64
UUACUGGUUGCUGUUGUGGTT against Thoc4	inactive: -1.44
GGUUGAAGUCACAAAAGAATT against Prkg1	inactive: 0.288
GCCUAUCCGACAACUUAGUTT against Slc25a17	inactive: -0.427
GGACCAUCACACACAUUGATT against 1110025G12Rik	inactive: -0.547
GGACGAGGUGGAAAAGUAUTT against Tpm2	inactive: -1.5
GGAGAGAGUGCAUCUAUAATT against Gdi3	inactive: -0.251
GGAUUCAAAGCUUCCUUUATT against Eras	inactive: 0.0631
GCCUGAAUCACAUGACUUCTT against Iigp2	inactive: 0.696
GGAGCUGAACUCAAUGGUATT against Hoxd3	inactive: 0.492
GGAUCACUUUUAGUUUUCUTT against C230013L11Rik	inactive: -0.733
CCUAGUCCCUCUGUCUCUUTT against Kctd13	inactive: -0.55
GCAUGAUAAGGCAGCCGUATT against Amelx	inactive: -0.474
CCCGCCUAAUUCUAAAGUCTT against Aqp8	inactive: 0.862
GGAUCUACAACAUGGAAAUTT against Mrps21	inactive: 1.15
CCAACUCCUAACAGACCUATT against Csf2rb1	inactive: -0.313
CGGAAUCAUACCCUGCUGUTT against Ube2q	inactive: 0.569
GGGUAUAAGGUCCCUUUUUTT against 5830443L24Rik	inactive: -1.36
GCUUCUCCUCUUUGGAUUATT against Olfr866	inactive: 1.08
GGCAGCCUUAUCCACGUGATT against Ces2	inactive: 2.26
CCUUGUCGAGCACAUGAGATT against Zfp69	inactive: -0.582

Sequence	z-score
CCAUGAAACUUAAAAUCCUTT against Tmem30b	inactive: 0.575
GGGCAGUUUUACUUUGUAATT against Golga2	inactive: -2.05
GCAGCAGUGUUCACCAAAATT against Aldh1a3	inactive: -2.09
GGCGAACUGUUCGAUUGCGTT against 5730538E15Rik	inactive: -1.17
GGAUGACAGUGAAUUAGACTT against 1810015C04Rik	inactive: 0.694
GGCAUCCAAUGAUUACAAATT against Ubash3a	inactive: 0.288
GUGUGGUCACCAUUGUCCUTT against Ptprcap	inactive: -0.859
GGCGAGCAUGAUCAUCCCATT against Gcm1	inactive: 2.35
GCCUGUGGUGACAAGCAGATT against 3830422K02Rik	inactive: 0.776
GGGAGAAAAGGGUCAAAAATT against Marco	inactive: 0.352
GCAGCACUGGCUAUUGAGATT against Man1b	inactive: -0.173
GGCUUUAGUUGUCUUUUAUTT against Il8ra	inactive: 0.434
GGAGCACUAUGAUGAGUUCTT against U2af1	inactive: -2.85
CCGGUUUAUGUCCUCUAUATT against Slc8a1	inactive: 0.781
CCUUGAUCUACAUAGAACCTT against Olfr177	inactive: 0.142
GGAUGUUCCAGCCCUUAUUTT against Zcchc5	inactive: -2.36
GCCUGUUUUGCCUAAAGUGTT against Hnrpdl	inactive: 0.72
GGAGAGUUGGGACUAUGCATT against Cd37	inactive: -0.176
GUGUAGCUAGGAUUGUCAATT against 2310016F22Rik	inactive: 0.248
GGGCAAAAUACAAAAGGAGTT against Mlph	inactive: -0.528
GGAUUUUUGCCAGUUAGUATT against D10Ertd438e	inactive: -2.26
GCUACUGACCAUUCUAACUTT against 1110012D08Rik	inactive: -0.266
CGUAAGAAAAAUAGCACAUTT against G630039H03Rik	inactive: 0.197
GGAGUUUGUCAACGAGGUGTT against Arl10a	inactive: -0.377
GGGACAUUUUCAGUUUUCUTT against 6720456B07Rik	inactive: 0.631
GAUUGGAGUGGUCUCUGCUTT against 2410014A08Rik	inactive: 0.347

Some of the entries so far, as a markdown table:

| Sequence | z-score |
| --- | --- |
| GGCGAGCAUGAUCAUCCCATT against Gcm1 | inactive: 2.35 |
| GCUACUGACCAUUCUAACUTT against 1110012D08Rik | inactive: -0.266 |

Quoted from the listing for reference:
Sequence	z-score
CGUAAGAAAAAUAGCACAUTT against G630039H03Rik	inactive: 0.197
GGAGUUUGUCAACGAGGUGTT against Arl10a	inactive: -0.377
